This passage reports IC50 results from article PMC9720522 (Food Chemistry: X, 2022).

For this assay, the system named is mAb against AZN (35D1D2). The assay can be described thus: indirect competitive ELISA. It is filed as binding, mouse. Particulars: ic-ELISA; coating antigen 0.23 and mAb 0.38 µg/mL.

Turning to `O=C(CCCN1CCC(O)(c2ccc(Cl)cc2)CC1)c1ccc(F)cc1` [HAL, haloperidol], the IC50 entry was “˃1000 ng/mL”.
